Source: the supplement of paper PMC10849652
Some of the results follow.

Sequences of proteins named here, by UniProt entry; tags and fusion partners are left off. A change or cut given only in a name is not applied to a line headed by its entry.
UniProt Q8N9B5, whole entry, looked up: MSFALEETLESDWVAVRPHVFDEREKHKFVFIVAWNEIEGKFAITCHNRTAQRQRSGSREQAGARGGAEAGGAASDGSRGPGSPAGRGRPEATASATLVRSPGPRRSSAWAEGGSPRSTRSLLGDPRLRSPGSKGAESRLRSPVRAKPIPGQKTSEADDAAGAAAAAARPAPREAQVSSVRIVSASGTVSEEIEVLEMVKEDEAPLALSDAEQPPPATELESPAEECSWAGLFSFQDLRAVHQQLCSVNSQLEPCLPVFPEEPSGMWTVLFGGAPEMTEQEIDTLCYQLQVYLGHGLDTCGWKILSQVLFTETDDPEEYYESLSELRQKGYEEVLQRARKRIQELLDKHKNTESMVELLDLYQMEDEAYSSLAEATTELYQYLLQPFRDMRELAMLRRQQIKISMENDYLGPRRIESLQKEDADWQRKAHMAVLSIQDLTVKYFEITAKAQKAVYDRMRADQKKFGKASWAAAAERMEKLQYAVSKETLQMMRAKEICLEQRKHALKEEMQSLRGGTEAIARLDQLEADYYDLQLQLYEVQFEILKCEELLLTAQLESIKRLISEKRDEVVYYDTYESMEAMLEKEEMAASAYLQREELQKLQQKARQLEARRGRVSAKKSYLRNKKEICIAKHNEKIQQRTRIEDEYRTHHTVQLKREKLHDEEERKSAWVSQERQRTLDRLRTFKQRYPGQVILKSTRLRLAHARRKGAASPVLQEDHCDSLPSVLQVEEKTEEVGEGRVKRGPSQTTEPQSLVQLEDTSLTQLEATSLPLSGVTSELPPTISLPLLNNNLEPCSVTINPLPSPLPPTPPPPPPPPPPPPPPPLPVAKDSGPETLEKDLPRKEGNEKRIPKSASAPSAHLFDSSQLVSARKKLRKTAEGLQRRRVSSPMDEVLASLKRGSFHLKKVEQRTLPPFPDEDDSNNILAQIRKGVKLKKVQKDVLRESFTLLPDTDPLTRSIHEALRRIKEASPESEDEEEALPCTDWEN
UniProt P52333: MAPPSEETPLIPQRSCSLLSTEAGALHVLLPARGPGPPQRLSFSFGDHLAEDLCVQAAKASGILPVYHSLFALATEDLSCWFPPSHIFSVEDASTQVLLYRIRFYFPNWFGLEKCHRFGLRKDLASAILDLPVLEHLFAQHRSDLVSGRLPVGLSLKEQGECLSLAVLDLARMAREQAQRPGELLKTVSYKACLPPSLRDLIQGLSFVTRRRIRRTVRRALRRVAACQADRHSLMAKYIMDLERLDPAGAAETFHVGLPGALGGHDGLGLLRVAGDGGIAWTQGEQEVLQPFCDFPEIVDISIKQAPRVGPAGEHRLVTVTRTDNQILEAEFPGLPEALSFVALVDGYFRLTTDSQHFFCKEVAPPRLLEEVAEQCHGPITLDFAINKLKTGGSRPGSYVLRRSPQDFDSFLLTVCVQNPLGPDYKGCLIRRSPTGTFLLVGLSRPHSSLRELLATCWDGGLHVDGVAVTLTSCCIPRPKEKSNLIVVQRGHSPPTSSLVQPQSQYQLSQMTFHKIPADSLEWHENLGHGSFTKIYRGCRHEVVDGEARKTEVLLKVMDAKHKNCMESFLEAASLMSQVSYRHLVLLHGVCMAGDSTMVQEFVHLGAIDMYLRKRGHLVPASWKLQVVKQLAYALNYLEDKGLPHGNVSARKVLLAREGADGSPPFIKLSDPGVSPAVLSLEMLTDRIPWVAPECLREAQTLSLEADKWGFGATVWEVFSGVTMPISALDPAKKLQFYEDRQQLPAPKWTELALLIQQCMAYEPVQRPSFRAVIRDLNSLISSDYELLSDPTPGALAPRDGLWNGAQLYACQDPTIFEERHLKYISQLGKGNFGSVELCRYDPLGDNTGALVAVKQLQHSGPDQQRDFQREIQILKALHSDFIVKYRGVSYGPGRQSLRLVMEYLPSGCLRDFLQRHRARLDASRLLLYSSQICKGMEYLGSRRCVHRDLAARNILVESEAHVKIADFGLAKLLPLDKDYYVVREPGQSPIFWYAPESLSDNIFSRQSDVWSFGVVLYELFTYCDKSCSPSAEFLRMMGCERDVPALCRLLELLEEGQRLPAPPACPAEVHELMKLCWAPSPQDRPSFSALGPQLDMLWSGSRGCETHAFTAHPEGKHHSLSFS
UniProt Q8NA54: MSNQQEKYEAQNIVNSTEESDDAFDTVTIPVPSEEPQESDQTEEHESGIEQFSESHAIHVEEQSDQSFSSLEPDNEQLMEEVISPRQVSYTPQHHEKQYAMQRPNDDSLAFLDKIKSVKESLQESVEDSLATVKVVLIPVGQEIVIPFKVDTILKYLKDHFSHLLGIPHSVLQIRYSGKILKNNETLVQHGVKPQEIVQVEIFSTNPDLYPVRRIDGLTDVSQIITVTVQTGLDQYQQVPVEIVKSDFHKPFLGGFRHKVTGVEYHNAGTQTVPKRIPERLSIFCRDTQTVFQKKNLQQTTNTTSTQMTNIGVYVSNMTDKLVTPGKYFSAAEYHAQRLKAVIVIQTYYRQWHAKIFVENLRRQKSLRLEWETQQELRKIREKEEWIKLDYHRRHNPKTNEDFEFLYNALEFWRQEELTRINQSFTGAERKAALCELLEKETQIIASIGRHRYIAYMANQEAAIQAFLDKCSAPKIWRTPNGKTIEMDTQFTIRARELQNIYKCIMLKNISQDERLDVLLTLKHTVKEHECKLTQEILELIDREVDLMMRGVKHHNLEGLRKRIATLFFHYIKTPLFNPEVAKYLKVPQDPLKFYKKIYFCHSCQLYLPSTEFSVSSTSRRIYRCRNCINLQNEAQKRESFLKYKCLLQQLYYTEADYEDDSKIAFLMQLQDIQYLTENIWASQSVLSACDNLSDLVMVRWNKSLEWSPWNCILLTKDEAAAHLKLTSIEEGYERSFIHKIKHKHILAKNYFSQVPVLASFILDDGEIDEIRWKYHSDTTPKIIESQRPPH
UniProt Q92830, whole entry, looked up: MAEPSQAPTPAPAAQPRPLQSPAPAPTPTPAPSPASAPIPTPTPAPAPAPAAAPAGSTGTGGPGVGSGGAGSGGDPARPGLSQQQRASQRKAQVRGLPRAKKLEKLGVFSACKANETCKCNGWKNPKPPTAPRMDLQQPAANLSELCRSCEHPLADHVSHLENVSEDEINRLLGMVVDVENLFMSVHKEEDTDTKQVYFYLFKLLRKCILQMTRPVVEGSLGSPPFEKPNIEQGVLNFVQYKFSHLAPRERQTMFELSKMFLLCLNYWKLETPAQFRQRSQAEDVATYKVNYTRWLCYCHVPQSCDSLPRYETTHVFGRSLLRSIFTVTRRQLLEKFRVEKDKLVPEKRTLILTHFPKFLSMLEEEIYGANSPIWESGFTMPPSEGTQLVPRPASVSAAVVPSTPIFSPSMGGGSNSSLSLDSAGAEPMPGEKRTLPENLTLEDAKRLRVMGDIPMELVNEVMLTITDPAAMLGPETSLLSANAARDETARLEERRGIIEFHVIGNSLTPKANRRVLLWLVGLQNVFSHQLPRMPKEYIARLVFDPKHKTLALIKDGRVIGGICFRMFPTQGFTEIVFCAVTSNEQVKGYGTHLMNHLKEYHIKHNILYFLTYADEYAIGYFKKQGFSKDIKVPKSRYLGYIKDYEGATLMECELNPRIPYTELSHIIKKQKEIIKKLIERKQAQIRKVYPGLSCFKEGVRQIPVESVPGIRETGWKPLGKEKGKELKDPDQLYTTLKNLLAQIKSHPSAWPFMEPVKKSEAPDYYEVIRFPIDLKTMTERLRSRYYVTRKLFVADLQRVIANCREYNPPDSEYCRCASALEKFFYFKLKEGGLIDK
UniProt Q9NQX7: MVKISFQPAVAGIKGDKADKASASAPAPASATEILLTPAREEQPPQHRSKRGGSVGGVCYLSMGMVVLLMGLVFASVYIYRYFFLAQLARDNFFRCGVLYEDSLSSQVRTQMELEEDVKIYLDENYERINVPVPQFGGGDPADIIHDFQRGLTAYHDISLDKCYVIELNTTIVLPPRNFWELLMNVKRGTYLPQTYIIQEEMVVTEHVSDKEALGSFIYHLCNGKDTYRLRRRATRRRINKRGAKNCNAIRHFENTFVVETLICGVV
UniProt Q13352: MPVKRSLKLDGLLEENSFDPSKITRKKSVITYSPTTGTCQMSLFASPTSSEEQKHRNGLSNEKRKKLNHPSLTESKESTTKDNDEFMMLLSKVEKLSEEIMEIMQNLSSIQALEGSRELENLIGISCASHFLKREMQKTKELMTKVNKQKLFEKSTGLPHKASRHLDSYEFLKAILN
UniProt Q9H9L4: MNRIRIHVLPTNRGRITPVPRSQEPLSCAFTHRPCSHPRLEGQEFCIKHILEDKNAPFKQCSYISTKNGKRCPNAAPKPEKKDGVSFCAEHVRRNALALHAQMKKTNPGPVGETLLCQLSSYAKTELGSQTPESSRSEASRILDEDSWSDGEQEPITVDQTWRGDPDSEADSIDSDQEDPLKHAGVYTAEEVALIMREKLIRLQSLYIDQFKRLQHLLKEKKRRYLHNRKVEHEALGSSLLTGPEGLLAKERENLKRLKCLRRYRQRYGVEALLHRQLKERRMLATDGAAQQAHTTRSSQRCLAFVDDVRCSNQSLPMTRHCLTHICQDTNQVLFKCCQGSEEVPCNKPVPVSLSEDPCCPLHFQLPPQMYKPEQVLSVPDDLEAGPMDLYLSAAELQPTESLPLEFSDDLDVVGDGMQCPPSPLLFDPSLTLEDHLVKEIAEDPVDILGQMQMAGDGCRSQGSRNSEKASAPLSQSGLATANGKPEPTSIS
UniProt Q96DY2: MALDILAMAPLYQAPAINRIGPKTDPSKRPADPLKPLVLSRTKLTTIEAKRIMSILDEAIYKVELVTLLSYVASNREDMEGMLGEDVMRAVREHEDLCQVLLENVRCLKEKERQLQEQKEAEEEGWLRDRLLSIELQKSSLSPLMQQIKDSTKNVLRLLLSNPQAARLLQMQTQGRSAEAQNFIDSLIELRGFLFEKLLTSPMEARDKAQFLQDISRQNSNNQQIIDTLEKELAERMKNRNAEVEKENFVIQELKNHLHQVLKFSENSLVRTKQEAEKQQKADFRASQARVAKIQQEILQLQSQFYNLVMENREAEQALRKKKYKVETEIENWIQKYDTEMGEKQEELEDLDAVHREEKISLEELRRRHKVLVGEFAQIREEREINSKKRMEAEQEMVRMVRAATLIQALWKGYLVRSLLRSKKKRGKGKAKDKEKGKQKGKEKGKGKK
UniProt Q8NHM5: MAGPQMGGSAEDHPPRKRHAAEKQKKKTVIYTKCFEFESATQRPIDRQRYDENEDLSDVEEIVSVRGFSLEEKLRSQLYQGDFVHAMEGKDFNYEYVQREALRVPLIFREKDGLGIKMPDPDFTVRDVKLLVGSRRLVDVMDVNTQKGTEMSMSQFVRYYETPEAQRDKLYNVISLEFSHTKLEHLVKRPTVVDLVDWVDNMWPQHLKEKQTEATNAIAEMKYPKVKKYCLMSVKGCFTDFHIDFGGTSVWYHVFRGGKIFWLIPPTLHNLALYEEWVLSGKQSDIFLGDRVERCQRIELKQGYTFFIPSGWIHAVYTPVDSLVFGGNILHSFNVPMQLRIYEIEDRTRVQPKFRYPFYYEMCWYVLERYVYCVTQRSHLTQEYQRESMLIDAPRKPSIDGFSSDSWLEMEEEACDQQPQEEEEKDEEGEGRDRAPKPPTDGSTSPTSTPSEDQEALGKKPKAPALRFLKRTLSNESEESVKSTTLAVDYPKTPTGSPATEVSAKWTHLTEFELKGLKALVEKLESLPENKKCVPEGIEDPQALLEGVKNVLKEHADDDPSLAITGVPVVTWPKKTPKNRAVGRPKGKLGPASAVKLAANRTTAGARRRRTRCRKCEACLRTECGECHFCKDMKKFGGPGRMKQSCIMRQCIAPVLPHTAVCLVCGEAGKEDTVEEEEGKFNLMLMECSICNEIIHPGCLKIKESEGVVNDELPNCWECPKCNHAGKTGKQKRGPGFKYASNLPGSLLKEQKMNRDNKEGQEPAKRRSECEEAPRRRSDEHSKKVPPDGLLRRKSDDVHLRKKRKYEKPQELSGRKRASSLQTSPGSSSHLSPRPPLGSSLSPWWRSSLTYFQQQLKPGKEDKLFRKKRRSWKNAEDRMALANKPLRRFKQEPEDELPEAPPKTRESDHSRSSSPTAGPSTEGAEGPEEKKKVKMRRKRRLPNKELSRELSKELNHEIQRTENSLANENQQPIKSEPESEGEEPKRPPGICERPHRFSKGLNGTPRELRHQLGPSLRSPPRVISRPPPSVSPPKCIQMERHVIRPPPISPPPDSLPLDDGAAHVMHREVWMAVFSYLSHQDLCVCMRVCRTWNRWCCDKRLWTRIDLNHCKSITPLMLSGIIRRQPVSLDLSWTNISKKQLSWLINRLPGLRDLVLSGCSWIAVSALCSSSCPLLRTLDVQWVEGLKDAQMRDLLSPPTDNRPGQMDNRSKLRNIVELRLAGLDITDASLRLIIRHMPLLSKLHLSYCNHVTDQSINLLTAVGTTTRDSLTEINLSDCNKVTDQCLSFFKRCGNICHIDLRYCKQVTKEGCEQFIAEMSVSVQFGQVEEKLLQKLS

How the values were obtained:
Experiment in all cases: log2 fold change, soluble protein after heating vs DMSO (PISA); higher = thermal stabilisation; K562 lysate, 10 uM; active = over 0.2 and 3.5 SD of the protein, either way, in both replicates (recomputed)
erlotinib = compound: C#Cc1cccc(Nc2ncnc3cc(OCCOC)c(OCCOC)cc23)c1 [erlotinib]
Outline: (§1)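 Dounce homogenisation of K562 pellets in PBS pH 7.4 with 1 mM MgCl2 produced a crude extract, used at 1 mg/mL protein. Exposure to 10 μM compound lasted 30 min, and aliquots were then heated for 3 min across 48°C-58°C, pooled and brought to 0.5% NP-40 at 4°C. The supernatant after 21,000xg for 90 min was quantified by TMTpro 16plex LC-MS/MS with channel sums equalised. Duplicate values are given as log-two fold change in thermal stability relative to solvent controls.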

[1] = compound: C1=CC(=CC=C1C2=NC3=C(N2)C=C(C=C3)C(=O)N)OC4=CC=C(C=C4)Cl
Outline: as §1

[2] = compound: C1=CC2=NC=CN=C2C=C1/C=C/3\C(=O)NC(=O)S3
Outline: as §1

[3] = compound: C1=CC=C(C=C1)C2=NC(=C(N2)C3=CC=NC=C3)C4=CC(=C(C=C4)Cl)O
Outline: as §1

IRAK-1-4 Inhibitor I = compound: C1COCCN1CCN2C3=CC=CC=C3N=C2NC(=O)C4=CC(=CC=C4)[N+](=O)[O-] [IRAK-1-4 Inhibitor I]
Outline: as §1

[4] = compound: C1CCN(C1)C(=O)NC2=CC=CC(=C2)NC3=NC=C(C(=N3)NCCC4=CN=CN4)Br
Outline: as §1

[5] = compound: C1CN(CCC1(CC2=CC=C(C=C2)Cl)N)C3=NC=NC4=C3C=CN4
Outline: as §1

[6] = compound: C/C(=N\NC(=O)C1=CC(=CC=C1)S(=O)(=O)N2CCOCC2)/C3=C(C=CC(=C3)Cl)O
Outline: as §1

[7] = compound: C1=CC2=C(C=CC(=C2)/C=C\3/C(=O)NC(=NCC4=CC=CS4)S3)N=C1
Outline: as §1

[8] = compound: C1=CC=C2C(=C1)C3=NNC4=CC=CC(=C43)C2=O
Outline: as §1

Measured: log2 fold change

JMY (UniProt Q8N9B5)
inactive: erlotinib 0.026 | [1] -0.113 | [2] -0.272 | [3] 0.076 | IRAK-1-4 Inhibitor I 0.045

JCHAIN (UniProt P01591)
inactive: erlotinib -0.515 | [1] -0.241

ITPRID2 (UniProt P28290)
inactive: erlotinib -0.066 | [1] 0.022 | [2] 0.031 | [3] -0.04 | [4] -0.117 | [5] 0.079 | IRAK-1-4 Inhibitor I -0.018

JAK3 (UniProt P52333)
inactive: [6] 0.037 | [7] -0.075 | [2] -0.041 | [8] 0.23

ITPR2 (UniProt Q14571)
inactive: erlotinib 0.058 | [1] 0.163 | [3] -0.051 | IRAK-1-4 Inhibitor I 0.021

IQUB (UniProt Q8NA54)
inactive: [6] -0.218 | [7] -0.064 | [2] -0.267 | [8] 0.224

JADE2 (UniProt Q9NQC1)
inactive: [4] -0.096 | [5] 0.192

IRS2 (UniProt Q9Y4H2)
inactive: erlotinib 0.04 | [1] -0.099 | [2] 0.164 | [3] 0.143 | IRAK-1-4 Inhibitor I -0.009

ITIH3 (UniProt Q06033)
inactive: erlotinib -0.113 | [1] 0.076 | [2] -0.033 | [3] 0.031 | [4] 0.05 | [5] 0.022 | IRAK-1-4 Inhibitor I -0.011

KAT2A (UniProt Q92830)
inactive: [3] 0.072 | [4] -0.323 | [5] 0.211 | IRAK-1-4 Inhibitor I -0.126

ITIH2 (UniProt P19823)
inactive: [6] 0.05 | [7] -0.047 | [2] -0.013 | [3] 0 | [8] -0.014 | [4] -0.017 | [5] -0.064 | IRAK-1-4 Inhibitor I 0.015

KANK2 isoform 2 (UniProt Q63ZY3)
inactive: [6] 0.305 | [7] -0.127 | [3] -0.044 | [8] -0.099 | [4] 0.247 | [5] -0.014 | IRAK-1-4 Inhibitor I 0.175

2 consecutive entries from above, quoted:
ITIH2 (UniProt P19823)
inactive: [6] 0.05 | [7] -0.047 | [2] -0.013 | [3] 0 | [8] -0.014 | [4] -0.017 | [5] -0.064 | IRAK-1-4 Inhibitor I 0.015

KANK2 isoform 2 (UniProt Q63ZY3)
inactive: [6] 0.305 | [7] -0.127 | [3] -0.044 | [8] -0.099 | [4] 0.247 | [5] -0.014 | IRAK-1-4 Inhibitor I 0.175

The listing continues.

NA (UniProt J3KR12)
inactive: [6] -0.208 | [7] -0.109 | [8] -0.11 | [4] -0.458 | [5] 0.03

INTS6L (UniProt Q5JSJ4)
inactive: erlotinib 0.005 | [1] 0.014 | [3] 0.095 | IRAK-1-4 Inhibitor I -0.073

ITM2C (UniProt Q9NQX7)
inactive: erlotinib -0.022 | [1] -0.022 | [2] 0.142 | [3] -0.029 | [4] -0.007 | [5] -0.036 | IRAK-1-4 Inhibitor I 0.025

KAZN isoform 3 (UniProt Q674X7)
inactive: erlotinib -0.007 | [1] 0.058 | [2] 0.195 | [3] 0.013 | IRAK-1-4 Inhibitor I -0.228

ITPR3 (UniProt Q14573)
inactive: erlotinib 0.165 | [1] 0.16

KCNH2 (UniProt Q12809)
inactive: erlotinib -0.186 | [1] 0.202

KANSL1 (UniProt Q7Z3B3)
inactive: erlotinib 0.098 | [1] -0.012 | [3] -0.026 | [4] 0.009 | [5] 0.029 | IRAK-1-4 Inhibitor I 0.096

JUN (UniProt P05412)
inactive: erlotinib 0.037 | [1] 0.008 | [3] 0.02 | [4] 0.061 | [5] 0.128 | IRAK-1-4 Inhibitor I 0.011

KCTD13 (UniProt Q8WZ19)
inactive: erlotinib -0.195 | [1] -0.018 | [2] 0.324 | [3] 0.093 | IRAK-1-4 Inhibitor I -0.01

ITGB3BP isoform 5 (UniProt Q13352)
inactive: [3] -0.089 | IRAK-1-4 Inhibitor I 0.072

KANSL2 (UniProt Q9H9L4)
inactive: erlotinib 0.021 | [1] -0.136 | [3] 0.018 | IRAK-1-4 Inhibitor I 0.018

ITFG2 (UniProt H0YGR0)
inactive: [6] 0.074 | [7] -0.126 | [3] 0.079 | [8] 0.117 | IRAK-1-4 Inhibitor I 0.065

KCNN4 (UniProt O15554)
inactive: erlotinib -0.034 | [1] -0.135 | [3] 0.025 | IRAK-1-4 Inhibitor I -0.219

ISL2 (UniProt Q96A47)
inactive: erlotinib -0.149 | [1] 0.003 | [2] 0.032 | [3] -0.014 | IRAK-1-4 Inhibitor I 0.016

JAG2 (UniProt Q9Y219)
inactive: erlotinib 0.006 | [1] -0.184 | [2] 0.026 | [3] 0.011 | [4] -0.091 | [5] 0.109 | IRAK-1-4 Inhibitor I 0.155

KCTD2 (UniProt Q14681)
inactive: [6] -0.052 | [7] -0.144 | [2] 0.01 | [8] -0.105 | [4] 0.168 | [5] -0.196

ITPRIP (UniProt Q8IWB1)
inactive: erlotinib 0.218 | [1] -0.16

IQCD (UniProt Q96DY2)
inactive: [2] -0.367

JAK1 (UniProt P23458)
inactive: [6] 0.027 | [7] 0.11 | [2] 0.185 | [8] 0.009 | [4] 0.226 | [5] 0.101

KDM2B (UniProt Q8NHM5)
inactive: erlotinib 0.027 | [1] 0.014 | [3] 0 | [4] 0.048 | [5] 0.035 | IRAK-1-4 Inhibitor I 0.004

ITPR1 (UniProt Q14643)
inactive: [6] -0.115 | [7] -0.206 | [2] 0.048 | [3] 0.074 | [8] -0.085 | [4] 0.016 | [5] -0.019 | IRAK-1-4 Inhibitor I 0.062
